Data on two molecules can be found in PMC5770610, “Structure and function of urea amidolyase” (Bioscience Reports, 2018).

Assay [1] concerns the target KlUA G559E/G572E mutant (Kluyveromyces lactis) (UniProt Q6CP22). As to the kind of experiment: SEC; analytical gel filtration, Superose 6 HR column; 0.25 mg protein injected; 20 mM Tris/HCl pH 8.0, 200 mM NaCl; calibrated with standards of 29-669 kDa; both purified. A general note: Size exclusion chromatography separates by hydrodynamic size, large species first.
Assay [2] addresses T1, Kluyveromyces lactis allophanate hydrolase (isolated AH part of KlUA) (Kluyveromyces lactis) (UniProt Q6CP22).
T1 sequence: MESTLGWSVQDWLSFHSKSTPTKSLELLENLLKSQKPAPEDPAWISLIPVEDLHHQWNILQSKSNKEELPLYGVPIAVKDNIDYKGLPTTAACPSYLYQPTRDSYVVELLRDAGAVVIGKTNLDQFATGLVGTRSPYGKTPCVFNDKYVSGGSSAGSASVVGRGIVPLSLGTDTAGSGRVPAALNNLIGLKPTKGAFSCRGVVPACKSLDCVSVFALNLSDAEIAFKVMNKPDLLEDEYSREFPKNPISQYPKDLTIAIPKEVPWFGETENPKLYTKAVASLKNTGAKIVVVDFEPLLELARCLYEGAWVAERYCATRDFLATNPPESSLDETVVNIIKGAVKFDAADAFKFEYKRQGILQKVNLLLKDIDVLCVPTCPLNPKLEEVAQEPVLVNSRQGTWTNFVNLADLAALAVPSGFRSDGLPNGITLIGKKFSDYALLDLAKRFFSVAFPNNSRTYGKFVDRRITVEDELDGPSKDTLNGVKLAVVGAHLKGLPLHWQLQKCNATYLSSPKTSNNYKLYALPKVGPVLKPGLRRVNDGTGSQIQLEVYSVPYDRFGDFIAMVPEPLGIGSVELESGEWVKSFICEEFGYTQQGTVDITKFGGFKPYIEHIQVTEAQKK
The assay is described as above.

These are yes or no findings as the source states them, for the method shown. For some assays here: Sequences can lack the tags named with a protein.

As to “KlUA G559E/G572E mutant (from UniProt Q6CP22 1-1829) (enzyme)”, in assay [1], the binding result was “no binding (tested: 0.25 mg of protein injected)”.

B1: Kluyveromyces lactis urea carboxylase (isolated UC part of KlUA) (domain or fragment, UniProt Q6CP22 617-1829)
chain: EAQKKKPFETVLIANRGEIAVRIMKTLKRMGIKSVAVYSDPDKYSQHVTDADFSVALHGRTAAETYLDIDKIINAAKKTGAQAIIPGYGFLSENADFSDRCSQENIVFVGPSGDAIRKLGLKHSAREIAERAKVPLVPGSGLIKDAKEAKEVAKKLEYPVMVKSTAGGGGIGLQKVDSEDDIERVFETVQHQGKSYFGDAGVFMERFVNNARHVEIQMMGDGFGKAIAIGERDCSLQRRNQKVIEETPAPNLPEATRAKMRAASERLGSLLKYKCAGTVEFIYDEQRDEFYFLEVNARLQVEHPITEMVTGLDLVEWMLRIAANDSPDFDNTKIEVSGASIEARLYAENPVKDFRPSPGQLTSVSFPSWARVDTWVKKGTNVSAEYDPTLAKIIVHGKDRNDAIMKLNQALNETAVYGCITNIDYLRSIASSKMFKEAKVATKVLDSFDYKPCAFEVLAPGANTSVQDYPGRTGYWRIGVPPSGPMDSYSFRLANRVVGNNSKSPALEITLNGPKLLFHTETVIAVSGGTVSCTLNDAQIAQNEPIEVKRGDILSVGKVTVGCRAYLSIRGGIDVPEYLGSRSTFAMGNMGGYNGRILKLGDVLFLNQPELSVSSLPAPDFEPQAAPKSLLPTLSTNKDWKIGVTCGPHGSIDLFKEEYIEQFFNDKWKVHYNSNRFGVRLIGPKPKWARSDGGEAGLHPSNAHDYVYSLGAINFTGDEPVIITCDGPSLGGFVCQAVVAEAELWKVGQLTPGDTIQFVPLSYGVARQLKESQDKSIDNFEEGSLLELSDDKILPKYENPILAVLPKKSDLSPKVTYRQAGDRYILVEYGELEFDLNICYRINRLIHQVERHQTVGIVEMSQGVRSVLIEFDGSKINQKALLKCLIAYESEIQFDKNWNVKSKIFKLPMAFEDSKTLDCVTRYRETIRSEAPWLPNNVDFIADVNDIDRNDVKNMLYSAKFMVLGLGDVFLGSPCAVPLDPRHRYLGTKYNPSRTYTARGVVGIGGMYMCIYNAEGSPGGYQLVGRTITAWDKLVIGDHPIDHPWLLTPFDQVEFYPVTEEELEVIIEDNDNGKFKIDVEESIFDHKEYLAWINENIDSIVAFQEAQGGEKADEFARLIQVANAELKKSGDDKPQDVEEYPDDAELLYSEYTGRFWKPVAAVGDHVEAGDGVIIIEAMKTEMVVGATKSGKVYKILHKNGDMVEAGDLVAVIV
As for B1, in assay [2], the binding result is on record as “no binding (tested: 0.25 mg of protein injected)”.
